# Reference: PubChem BioAssay AID1259415 (National Center for Advancing Translational Sciences (NCATS), 2018)
# Only a part is listed here, and it is no random draw. Results filed as inconclusive are left out. Active and inactive are the calls of the source. No stated cut-off is given here; in the data, active means activity change below about -60%; inconclusive means no clear call, values can overlap the other calls; inactive means above about -39%.
# Assay: qHTS Assay for inhibitors of the human cytomegalovirus (HCMV)
# Settings: HFF cells, HCMV-luciferase reporter, 72 h; at 57.5 µM; hits give low values
# From the text: NCGC Assay Overview: Infection with human cytomegalovirus (HCMV) continues to pose significant threats for pregnant women and immunocompromised hosts. HCMV causes serious morbidity and mortality in transplant recipients, and congenital HCMV is the leading infectious cause of mental retardation and deafness in children. In the 1990s, the annual costs associated with the disease burden of congenital CMV were estimated at around $2 billion. A HCMV vaccine is not available yet and HCMV therapies result in intolerable side effects and emergence of drug resistant viruses. […] Towards this goal we have developed and characterized a luciferase HCMV reporter that was initially used in 96 well plates and then optimized to 1536-well plates for utilization in screening of the MLSMR collection, the NGCG diversity collection and the NCGC Pharmaceutical Collection of approved and investigational drugs.
# NCGC Assay Protocol Summary:
# This is a cell-based assay for HCMV inhibition in HFFs cells. The screening used 2 compound doses and the HCMV-luciferase at MOI of 1 PFU/cell. Cells were treated and infected with HCMV. At 72 h post infection cell lysates were collected and luciferase activity was determined using the Glomax-Multi + Detection System (Promega, Madison, WI). Data were normalized to the controls for basal activity (buffer only) and known HCMV inhibitors Salinmoycin.
# 1536-well assay protocol for the assay:
# (1) Add 3 ul CMV/HFF cell culture. 1000 cells/well in DMEM nirmal media.
# (2) Incubate 16 hr at 37C.
# (3) Add 23 nl control compound, 10uM of Salinomycin.
# (4) Add 23 nl compounds in DMSO solution.
# (5) Add 3 ul CMV suspension. Final 1 puf/ul, Virus stock 2000pfu/ul
# (6) Incubate 72 hrs at 37C.
# (7) Add 4 ul OneGlo Luc Reagent.
# (8) Incubate 5 min at room temperature.
# On the % scale 0 is the no-effect control and ±100 the full control effect.
row,SMILES,"activity change, negative = inhibition"
1,CC(C)(C)c1ccc(-n2ncc3c2CCCC3NC(=O)CCN2CCCC2=O)cc1 (stereo not given),active: -67.2%
2,COc1ccccc1C(=O)NNC(=S)NC(=O)c1ccco1,active: -81.9%
3,O=C(CCCCCCC(=O)Nc1ccccc1)NO,active: -76.4%
4,CN1CCN(C(=O)COc2ccc(-c3nc4ccccc4s3)cc2)CC1,active: -67.3%
5,CN(C)C(=O)c1cccc(COc2ccc(N3C(N)=NC(N)=NC3(C)C)cc2Cl)c1,active: -101%
